The test has as its target N-terminally His6-tagged human IDO1 (indoleamine 2,3-dioxygenase 1), purified apo-IDO1 (human) (UniProt P14902). Description: fluorescence polarisation; Alexa Fluor 488-labelled IDO1 at 100 nM titrated with GAPDH; room temperature; 40 mM EPPS, 150 mM NaCl, 10% glycerol, pH 7.6; both purified.

Amino acid sequences for entries named in this document (tags omitted). A change or cut given only in a name is not applied to a line headed by its entry.
UniProt P14902: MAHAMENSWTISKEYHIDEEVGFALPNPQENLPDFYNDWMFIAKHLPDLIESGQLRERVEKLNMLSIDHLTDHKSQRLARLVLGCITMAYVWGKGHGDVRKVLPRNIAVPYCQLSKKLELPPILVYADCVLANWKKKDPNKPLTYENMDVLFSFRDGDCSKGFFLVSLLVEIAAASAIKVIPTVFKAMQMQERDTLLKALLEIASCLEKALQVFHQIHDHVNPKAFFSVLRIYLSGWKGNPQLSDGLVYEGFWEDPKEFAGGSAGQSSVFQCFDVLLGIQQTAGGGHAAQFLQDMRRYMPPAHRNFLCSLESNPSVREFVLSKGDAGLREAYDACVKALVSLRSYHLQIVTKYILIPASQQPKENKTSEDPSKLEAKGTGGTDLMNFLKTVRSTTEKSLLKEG
UniProt P04406: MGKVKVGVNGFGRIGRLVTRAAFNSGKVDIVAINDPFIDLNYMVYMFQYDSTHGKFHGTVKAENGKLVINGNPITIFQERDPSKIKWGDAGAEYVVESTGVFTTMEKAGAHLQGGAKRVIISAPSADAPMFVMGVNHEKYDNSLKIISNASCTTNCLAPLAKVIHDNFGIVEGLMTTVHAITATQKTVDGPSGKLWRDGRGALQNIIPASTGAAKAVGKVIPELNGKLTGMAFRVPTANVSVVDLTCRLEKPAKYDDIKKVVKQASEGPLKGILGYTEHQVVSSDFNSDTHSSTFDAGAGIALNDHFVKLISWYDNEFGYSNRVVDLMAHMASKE

No constants are given. Whether binding was seen depends on the method and setting. Binding calls can cover weak binding; strength is not graded here.

In the case of “TC-GAPDH E138R, purified (from UniProt P04406) (enzyme)”, the binding entry is given as “binds”.

These data come from PMC12329532.
